In the experiment the test system is CD2F1 mice, L1210 leukemia ip, survival T/C. The experiment is described as follows: NCI In Vivo Anticancer Drug Screen. Data for tumor model L1210 Leukemia (intraperitoneal) in CD2F1 (CDF1) mice. The following applies: higher T/C = longer survival. The essentials:
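Vehicle-treated tumor-bearing mice served as controls (C) for compound-treated mice (T). Reported figure is T divided by C.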

Where [1] appears, read: T/C endpoint: mean survival time, dose: 400.0 mg/kg/injection, schedule: Q04DX003 (ip), vehicle: saline with Tween-80.
Setting [2] is: T/C endpoint: mean survival time, dose: 200.0 mg/kg/injection, schedule: Q04DX003 (ip), vehicle: saline.
[3] abbreviates: T/C endpoint: mean survival time, dose: 100.0 mg/kg/injection, schedule: Q04DX002 (ip), vehicle: saline with Tween-80.
Setting [4] is: T/C endpoint: mean survival time, dose: 200.0 mg/kg/injection, schedule: Q04DX002 (ip), vehicle: saline with Tween-80.
[5] abbreviates: T/C endpoint: mean survival time, dose: 400.0 mg/kg/injection, schedule: Q04DX002 (ip), vehicle: saline with Tween-80.
Setting [6] is: T/C endpoint: mean survival time, dose: 400.0 mg/kg/injection, schedule: Q01DX001 (ip), vehicle: saline with Tween-80.
The mark [7] stands for this setting: T/C endpoint: median survival time, dose: 200.0 mg/kg/injection, schedule: Q01DX009 (ip), vehicle: Klucel (hydroxypropylcellulose) (HPC).
The mark [8] stands for this setting: T/C endpoint: mean survival time, dose: 400.0 mg/kg/injection, schedule: Q01DX001 (ip), vehicle: saline.

The list does not hold the whole screen: it gathers tests that were run many times, whatever their T/C, doses with no T/C, and many T/C values between a quarter and a half above the control. Further doses and runs are listed elsewhere. T/C is the treated group as % of the vehicle group. Some entries give survivors of the animals treated and no T/C: the source holds a T/C of zero for them, seemingly a mark for toxic or unscored doses. Some doses without a T/C left all or most animals alive at the check, yet need not have been tolerated: the source hardly ever lists a survival T/C far under the control, and the zero likely stands for such cases as well. Survivors were counted at the toxicity check, usually on the fifth day, unless a day is given; later deaths do not show. Schedules are NCI's codes, taken here to give the interval after Q, in days (D) or hours (H), and the number of doses after X. Some structures stand for samples that the source files as different forms (salt, stereo form or complex); doses refer to the form tested. Some doses were run more than once; their values stand side by side, smallest first. For survival time, the PubChem record calls one and a half times the control and up active, and a quarter to a half above the control has no call in these data; cut-offs in other NCI protocols can differ.

For the compound `CCOc1ccc(-c2nc3ccc(-c4nc5ccc(N6CCN(C)CC6)cc5[nH]4)cc3[nH]2)cc1`, the T/C was 125 % of control (T/C endpoint: median survival time, dose: 1.56 mg/kg/injection, schedule: Q01DX009 (ip), vehicle: saline); 130 % of control (T/C endpoint: median survival time, dose: 3.0 mg/kg/injection, schedule: Q01DX009 (ip), vehicle: saline); 131 % of control (T/C endpoint: median survival time, dose: 3.12 mg/kg/injection, schedule: Q01DX009 (ip), vehicle: saline); 126 % of control (T/C endpoint: median survival time, dose: 6.0 mg/kg/injection, schedule: Q01DX009 (ip), vehicle: saline); 135 % of control (T/C endpoint: median survival time, dose: 6.25 mg/kg/injection, schedule: Q01DX009 (ip), vehicle: saline); 134 % of control (T/C endpoint: median survival time, dose: 12.0 mg/kg/injection, schedule: Q01DX009 (ip), vehicle: saline). Under “T/C endpoint: median survival time, dose: 12.5 mg/kg/injection, schedule: Q01DX009 (ip), vehicle: saline”, the T/C is 146 % of control. Also, under “T/C endpoint: median survival time, dose: 25.0 mg/kg/injection, schedule: Q01DX009 (ip), vehicle: saline”, the survivor count is 5 of 6.

As for `CC(S)c1ccccc1` (stereo not given), the survivor count under setting [1] was 3 of 6.

As to `CCc1c2cc(OC)c(OC)cc2cc2c3cc(OC)c(OC)cc3cc[n+]12` (tested in a mixture with another compound), the T/C (T/C endpoint: mean survival time, dose: 22.0 mg/kg/injection, schedule: Q01DX009 (ip), vehicle: saline with Tween-80) was 128 % of control; the T/C (T/C endpoint: mean survival time, dose: 25.0 mg/kg/injection, schedule: Q01DX009 (ip), vehicle: saline) is 125 % of control; the T/C (T/C endpoint: mean survival time, dose: 50.0 mg/kg/injection, schedule: Q01DX009 (ip), vehicle: saline with Tween-80) is 134 % of control; the T/C (T/C endpoint: mean survival time, dose: 132.0 mg/kg/injection, schedule: Q04DX003 (ip), vehicle: saline) was 129 % of control; the T/C under setting [2] was 134 and 135 % of control; the T/C (T/C endpoint: mean survival time, dose: 300.0 mg/kg/injection, schedule: Q04DX003 (ip), vehicle: saline) was 146 % of control. Further, the survivor count is 6 of 6 (T/C endpoint: mean survival time, dose: 150.0 mg/kg/injection, schedule: Q01DX009 (ip), vehicle: saline) and 6 of 6 (T/C endpoint: mean survival time, dose: 200.0 mg/kg/injection, schedule: Q01DX009 (ip), vehicle: saline).

As for `O=S(=O)(OCCCCCCOS(=O)(=O)c1cccnc1)c1cccnc1`, the T/C (T/C endpoint: mean survival time, dose: 20.0 mg/kg/injection, schedule: Q04DX002 (ip), vehicle: saline with Tween-80) is 146 % of control. The survivor count (T/C endpoint: mean survival time, dose: 40.0 mg/kg/injection, schedule: Q04DX002 (ip), vehicle: saline with Tween-80) is 1 of 3; the survivor count under setting [3] is 0 of 3; the survivor count under setting [4] is given as 0 of 3; the survivor count under setting [5] is given as 0 of 3.

With `CCOC(=O)c1cc(C[N+](C)(C)C)oc1C`, the survivor count by setting is: (T/C endpoint: mean survival time, dose: 200.0 mg/kg/injection, schedule: Q01DX001 (ip), vehicle: saline with Tween-80) 0 of 6; under setting [6], 0 of 6.

Regarding `CC(C)(C)N1CC1`, the survivor count under setting [4] was 3 of 3.

As to `Cc1ccc(NCCN(C)C)c2c(=O)c3cc(O)ccc3sc12`, the T/C by setting is: (T/C endpoint: median survival time, dose: 12.5 mg/kg/injection, schedule: Q01DX009 (ip), vehicle: Klucel (hydroxypropylcellulose) (HPC)) 116, 121, 133, 137 % of control; (T/C endpoint: median survival time, dose: 25.0 mg/kg/injection, schedule: Q01DX009 (ip), vehicle: Klucel (hydroxypropylcellulose) (HPC)) 131, 133, 164, 179 % of control; (T/C endpoint: median survival time, dose: 50.0 mg/kg/injection, schedule: Q01DX009 (ip), vehicle: Klucel (hydroxypropylcellulose) (HPC)) 162, 166, 207, 222 % of control; (T/C endpoint: median survival time, dose: 100.0 mg/kg/injection, schedule: Q01DX009 (ip), vehicle: Klucel (hydroxypropylcellulose) (HPC)) 98, 121, 150, 225 % of control; under setting [7], 133 % of control. Further, the survivor count under setting [7] was 3 of 6, 4 of 6, 5 of 6.

For `c1ccc(-c2n[nH]c3ccccc23)cc1`, under “T/C endpoint: median survival time, dose: 400.0 mg/kg/injection, schedule: Q04DX002 (ip), vehicle: saline with Tween-80”, the survivor count was 0 of 3.

With `N=C(N)c1ccc(OCCOc2ccc(N)cc2)cc1`, the survivor count under setting [6] is on record as 1 of 6.

For `CNC(=S)NCc1ccc(C(=O)NC(C)C)cc1`, the survivor count (T/C endpoint: mean survival time, dose: 800.0 mg/kg/injection, schedule: Q01DX009 (ip), vehicle: other) is 1 of 6.

Regarding `Cc1ccc(C(=Nc2ccccc2)N=P(c2ccccc2)(c2ccccc2)c2ccccc2)cc1`, the survivor count (T/C endpoint: median survival time, dose: 200.0 mg/kg/injection, schedule: Q01DX005 (ip), vehicle: saline with Tween-80) is 2 of 6.

As to `COc1ccccc1NC(=O)Nc1ccc(C(=O)OCC(C)C)cc1`, the survivor count (T/C endpoint: mean survival time, dose: 400.0 mg/kg/injection, schedule: Q01DX009 (ip), vehicle: saline with Tween-80) was 3 of 6.

In the case of `CCN(CC)CCCNc1nccc2c(C)c3[nH]c4ccncc4c3cc12`, the T/C is 129 % of control (T/C endpoint: mean survival time, dose: 1.25 mg/kg/injection, schedule: Q01DX001 (ip), vehicle: water); 126 % of control (T/C endpoint: mean survival time, dose: 2.5 mg/kg/injection, schedule: Q01DX001 (ip), vehicle: water); 135 % of control (T/C endpoint: mean survival time, dose: 5.0 mg/kg/injection, schedule: Q01DX001 (ip), vehicle: water); 128 % of control (T/C endpoint: mean survival time, dose: 10.0 mg/kg/injection, schedule: Q01DX001 (ip), vehicle: water); 142 % of control (T/C endpoint: mean survival time, dose: 20.0 mg/kg/injection, schedule: Q01DX001 (ip), vehicle: water); 133 % of control (T/C endpoint: median survival time, dose: 1.25 mg/kg/injection, schedule: Q01DX009 (ip), vehicle: acid diluted with saline). Further, the T/C was 129 % of control (T/C endpoint: median survival time, dose: 2.5 mg/kg/injection, schedule: Q01DX001 (ip), vehicle: other); 125 % of control (T/C endpoint: median survival time, dose: 2.5 mg/kg/injection, schedule: Q01DX009 (ip), vehicle: acid diluted with saline); 136 % of control (T/C endpoint: median survival time, dose: 5.0 mg/kg/injection, schedule: Q01DX009 (ip), vehicle: acid diluted with saline). Besides, the survivor count runs as follows: (T/C endpoint: mean survival time, dose: 40.0 mg/kg/injection, schedule: Q01DX001 (ip), vehicle: water) 3 of 6; (T/C endpoint: median survival time, dose: 10.0 mg/kg/injection, schedule: Q01DX009 (ip), vehicle: acid diluted with saline) 9 of 10; (T/C endpoint: median survival time, dose: 20.0 mg/kg/injection, schedule: Q01DX009 (ip), vehicle: acid diluted with saline) 2 of 10; (T/C endpoint: median survival time, dose: 40.0 mg/kg/injection, schedule: Q01DX001 (ip), vehicle: other) 0 of 6; (T/C endpoint: median survival time, dose: 40.0 mg/kg/injection, schedule: Q01DX009 (ip), vehicle: acid diluted with saline) 0 of 10.

On to `CC(O)CNC1CCCCC1` (stereo not given), for which the survivor count by setting is: (T/C endpoint: mean survival time, dose: 100.0 mg/kg/injection, schedule: Q04DX003 (ip), vehicle: saline with Tween-80) 5 of 6; (T/C endpoint: mean survival time, dose: 200.0 mg/kg/injection, schedule: Q04DX003 (ip), vehicle: saline with Tween-80) 3 of 6; under setting [1], 0 of 6.

In the case of `Cc1ccc2[nH]c(=O)[nH]c(=O)c2n1`, the survivor count (T/C endpoint: mean survival time, dose: 300.0 mg/kg/injection, schedule: Q01DX001 (ip), vehicle: other) is listed as 1 of 6.

For `O=C1NC(=O)C2C3CCC(O3)C12` (stereo not given), the survivor count under setting [3] was 3 of 3; the survivor count (T/C endpoint: mean survival time, dose: 100.0 mg/kg/injection, schedule: Q04DX002 (ip), vehicle: saline) is on record as 3 of 3; the survivor count (T/C endpoint: mean survival time, dose: 200.0 mg/kg/injection, schedule: Q04DX002 (ip), vehicle: saline) is 2 of 3; the survivor count under setting [5] is 0 of 3; the survivor count (T/C endpoint: mean survival time, dose: 400.0 mg/kg/injection, schedule: Q04DX002 (ip), vehicle: saline) is given as 0 of 3.

Regarding `CC(C)CC(C)COC(=O)c1c(Cl)c(Cl)c(Cl)c(Cl)c1C(=O)O` (stereo not given), the survivor count under setting [8] is 0 of 6.

For `[Cl][Ga]([Cl])[Cl]`, the survivor count is 2 of 6 under setting [2] and 3 of 6 under setting [8].

For the compound `ONc1nc(NO)c2[nH]cnc2n1`, the T/C runs as follows: (T/C endpoint: mean survival time, dose: 5.3 mg/kg/injection, schedule: Q01DX001 (ip), vehicle: other) 132 % of control; (T/C endpoint: mean survival time, dose: 19.0 mg/kg/injection, schedule: Q01DX001 (ip), vehicle: other) 144 % of control.

Regarding `Cc1ccc(N2C(=O)C=CC2=O)cc1`, the survivor count (T/C endpoint: mean survival time, dose: 10.0 mg/kg/injection, schedule: Q01DX009 (ip), vehicle: saline sonified) is listed as 5 of 6.

The values above are taken from PubChem BioAssay AID256 (DTP/NCI, 2004).
